# Results from patent publication US20200114016A1, “Anti-Warburg Nanoparticles - A matrix metalloprotease activatable conjugate to inhibit glioblastoma proliferation” (The Board of Trustees of the Leland Stanford Junior …, priority 2017, published 2020).
# At least one structure is not confirmed: it was looked up by name or label, or the drawing left a doubt.
# Test system: glioblastoma (GBM) cell
# Assay: MTT assay of GBM cell viability
# Assay type: cell-based
# Details: FIG. 3B
structure (smiles),measurement,value
"O=C(O)C(Cl)Cl [DCA, dichloroacetate]",effect on glioblastoma (GBM) cell viability,Dose-dependent effect
